US8372961B2, “Polynucleotides encoding concatameric immunoadhesion molecules” (Medexgen Co., Ltd., priority 2001, dated 2013)
Some results were stated once for a whole list of compounds, not compound by compound.

Tested on: collagen-induced arthritis (CIA) in DBA/1 mice
Test: Collagen-induced arthritis (CIA) of DBA/1 mouse, arthritis index
Assay type: in vivo
Conditions: 10 μg i.p. every 2 days for 19~45 days, 5 DBA/1 mice

## [TNFR1-TNFR1/Fc]2: concatameric fusion dimeric protein: two TNFR1 soluble extracellular domains in tandem fused to IgG1 Fc; monomer SEQ ID NO: 6
  decrease of arthritis index in comparison with mice injected with PBS as control: 42-55%
